Test results as given in article PMC12040169 (PLOS Biology, 2025).
The other results are listed elsewhere or left out.

system: T1, CTL2-GFP (C. trachomatis L2/434/Bu, GFP-expressing); design: species or system HeLa; Intracellular C. trachomatis growth in HeLa cells, bulk GFP fluorescence relative to DMSO; settings: bulk GFP, single well; 28.5 h, 10 µM; inhibitor
T1 construct: L2/434/Bu, GFP-expressing

Row | Structure (SMILES) | % of control remaining [%]
1 | O=C(NC(C(=O)N/N=C/c1cccc(O)c1)c1n[nH]c(=O)c2ccccc12)c1ccccc1 (stereo not shown) [CBK262853] | 100
2 | O=C(CCSc1nnnn1-c1ccc(C(=O)O)cc1)Nc1ccc(F)cc1 [CBK300497] | 165.857
3 | COc1ccc(S(=O)(=O)NC[C@H]2C[C@@H]3CC[N@]2C[C@@H]3CN2CCSCC2)cc1 [CBK288769] | 103.582
4 | CCCCc1c(C(=O)O)cc(OC)cc1C(=O)O [CBK217866] | 113.872
5 | CCCCCOc1ccc(Nc2cc(-c3ccco3)ncn2)cc1 [CBK090892] | 127.539
6 | COc1ccc(CCNc2c(Cc3ccccc3)c(C)c(C#N)c3nc4ccccc4n23)cc1OC [CBK263135] | 100
7 | CCCNc1cc(-c2cccc(Cl)c2)nc2ccnn12 [CBK037747] | 201.032
8 | CC(=O)N1c2ccc(NC(=O)C3(C)CCCO3)cc2CC1C (stereo not shown) [CBK282702] | 135.699
9 | Cc1n[nH]c(=S)n1-c1ccc(Cl)cc1 [CBK012457] | 103.488
10 | Cc1ccc(O)c(NC(=O)c2nc3ncccn3n2)c1 [CBK267629] | 132.29
11 | COc1nc(N)nc2c1ccn2C1CC(O)C(CO)O1 (stereo not shown) [CBK201177] | 88.7357
12 | C=Cn1ncc(CN2CCN(C3CCCCC3)C(=O)C2)c1C [CBK282526] | 121.968
13 | O=C(CSc1cc(Cl)ccc1Cl)Nc1cccc(Cl)c1 [CBK263712] | 75.4654
14 | O=C(c1ccco1)N1CCCC(n2c(=O)oc3ccc(Cl)cc32)C1 (stereo not shown) [CBK282892] | 103.515
15 | CC(C)Oc1ccc(C(=O)N2CCN(c3ccccc3)CC2)cc1 [CBK305847] | 156.836
16 | COc1ccc([N+](=O)[O-])cc1N1CCN(C(=O)OC(C)(C)C)CC1 [CBK003504] | 86.1325
17 | O=C(CN1C(=O)S/C(=C\c2ccc(Cl)cc2)C1=O)Nc1cc([N+](=O)[O-])ccc1O [CBK262396] | 133.614
18 | CC(=O)N1CCN(c2ccc(NC(=O)c3cccc4c(Br)cccc34)cc2Cl)CC1 [CBK269624] | 129.352
19 | Fc1ccc(-c2cncc(NCc3ccncc3)n2)cc1Cl [CBK065343] | 188.14
20 | COc1ccc(Br)cc1CN(CCc1ccc2c(c1)OCO2)Cc1cccnc1 [CBK263327G] | 98.5124

Row | Structure (SMILES) | % of control remaining [%]
21 | N#Cc1ccc(NC(=O)CCn2cnnn2)cc1 [CBK269832] | 116.099
22 | CCC(=O)N1CCC(NC(=O)N(CCc2ccccn2)Cc2ccccc2)CC1 [CBK171898] | 140.472
23 | COCCNS(=O)(=O)c1cc(OCC(N)=O)c(C)cc1Cl [CBK266461] | 112.86
24 | O=C(NCc1ccccc1)c1ccccc1NS(=O)(=O)c1ccccc1F [CBK113881] | 60.3951
25 | CCc1ocnc1C(=O)NC1CCN(c2ncccc2C#N)CC1 [CBK306935] | 90.388
26 | OC(CSc1ccccc1)CN1CCN(C(c2ccccc2)c2ccccc2)CC1 (stereo not shown) [CBK074683] | 99.4372
27 | Cc1nc(C)n(CC2CCCN(Cc3ccccc3C#N)C2)n1 (stereo not shown) [CBK305085] | 119.076
28 | CC1CCc2nn(CCNC(=O)c3cccs3)c(=O)cc2C1 (stereo not shown) [CBK284483] | 133.005
29 | Cc1sc2nc(C(C)N(C)Cc3cc[nH]n3)[nH]c(=O)c2c1C (stereo not shown) [CBK306275] | 127.196
30 | O=C(O)c1ccc(NS(=O)(=O)c2ccc3ccccc3c2)cc1 [CBK034053] | 122.586
31 | O=c1n(Cc2ccncc2)nc(C(F)(F)F)c2cccn12 [CBK283966] | 168.577
32 | Cc1cccc(OCC(=O)N2CCN(Cc3ccccn3)CC2)c1 [CBK134023G] | 100
33 | OCc1cccc(-c2cncc(N3CCN(CCN4CCCC4)CC3)n2)c1 [CBK066136] | 161.093
34 | O=C(O)C1CC(=O)N(c2cccc3ccccc23)C1 (stereo not shown) [CBK286902] | 128.632
35 | N#Cc1ccc(CSc2nnc(COc3ccccc3)n2Cc2ccco2)cc1 [CBK267539] | 113.657
36 | CC1(C(=O)O)NC(c2ccccc2O)C2C(=O)N(c3ccccc3[N+](=O)[O-])C(=O)C21 (stereo not shown) [CBK264979] | 100
37 | CS(=O)(=O)NC1CCN(S(=O)(=O)c2cc(Cl)cc(Cl)c2)CC1 [CBK306082] | 134.041
38 | O=C(NCC1(c2ccccc2)CCCC1)c1ccc(NC(=O)C2COc3ccccc3O2)cc1 (stereo not shown) [CBK266558] | 105.598
39 | Cc1ccc(-n2c(C)cc(/C=N/NC(=O)c3ccc(CN4CCOCC4)cc3)c2C)cc1 [CBK263324] | 103.748
40 | Cc1nc(C)c(C(=O)N2Cc3ccccc3C2)s1 [CBK200326] | 139.329
